Assay: Immobilization of BSA, fibronectin or RPMI-medium proteins on bare and hydrophobin-coated TEFLON, TFA extraction and SDS-PAGE

fibronectin
immobilization on coated TEFLON (SC3 or trSC3 coated TEFLON): can be immobilized
immobilization on bare TEFLON (bare TEFLON): not immobilized

— patent publication US20050238685A1, “Method of binding a compound to a surface” (priority 2002, published 2005)
